Assay results taken from paper PMC7261183.
These are yes or no findings as the source states them, for the method shown. In cells and extracts the contact can be indirect. Tags and fused reporters may be left off the sequences shown.

Sequences of proteins named here, by UniProt entry; tags and fusion partners are left off.
UniProt P0A6Y8: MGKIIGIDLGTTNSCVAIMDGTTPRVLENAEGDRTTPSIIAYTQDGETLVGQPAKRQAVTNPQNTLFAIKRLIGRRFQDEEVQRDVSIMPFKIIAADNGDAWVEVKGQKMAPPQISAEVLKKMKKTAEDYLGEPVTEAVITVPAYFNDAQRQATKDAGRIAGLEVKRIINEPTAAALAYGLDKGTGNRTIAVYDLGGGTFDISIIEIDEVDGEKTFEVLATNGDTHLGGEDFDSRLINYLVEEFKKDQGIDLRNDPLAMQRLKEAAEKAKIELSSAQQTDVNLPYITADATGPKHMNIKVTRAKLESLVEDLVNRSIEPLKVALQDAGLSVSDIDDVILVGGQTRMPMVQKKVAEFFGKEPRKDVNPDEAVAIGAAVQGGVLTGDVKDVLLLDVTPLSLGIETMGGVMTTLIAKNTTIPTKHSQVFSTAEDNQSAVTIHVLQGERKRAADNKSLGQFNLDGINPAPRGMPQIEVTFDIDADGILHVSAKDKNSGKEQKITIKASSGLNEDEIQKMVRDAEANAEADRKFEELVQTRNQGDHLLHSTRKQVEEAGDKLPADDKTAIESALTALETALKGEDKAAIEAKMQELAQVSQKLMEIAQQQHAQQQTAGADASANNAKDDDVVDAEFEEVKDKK

Target: T1, wild-type Ocr with C-terminal Strep-tag II (bacteriophage T7) (UniProt P03775)
T1 sequence: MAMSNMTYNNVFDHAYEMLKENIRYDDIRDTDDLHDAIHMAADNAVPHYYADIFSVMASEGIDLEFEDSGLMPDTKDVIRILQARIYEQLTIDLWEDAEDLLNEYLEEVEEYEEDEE
Test: pull-down; Strep-tagged protein and candidate partner produced in E. coli BW25113 from compatible plasmids (BREX- or BREX+ cells); clarified lysate on a StrepTrap HP column, washed with buffer A (150 mM NaCl, 1 mM EDTA, 100 mM Tris-HCl pH 8.0), eluted with desthiobiotin; SDS-PAGE, bands identified by MALDI-TOF mass spectrometry

DnaK (from UniProt P0A6Y8 1-638)
binding: no binding
